# Data reported in patent US20200123175A1, “NOVEL ISOTHIAZOLO-BASED BICYCLES, PROCESSES FOR THEIR PREPARATION AND THEIR USE AS HERBICIDES AND/OR PLANT GROWTH REGULATORS” (Bayer CropScience Aktiengesellschaft, priority 2017, published 2020).
# Read-outs that look alike come from different tables or passages of the source. Some of these results come from one statement about several compounds together.
# Tests used:
# Alternaria brassicae = experiment: In vivo preventive test on Alternaria brassicae (leaf spot on radish or cabbage); details: 500 ppm of active ingredient; radish or cabbage plants; evaluated 6 days after the inoculation
# Phytophthora infestans = format: in vivo; details: tomato plants, evaluated 5 days after the inoculation
# Septoria tritici = experiment: In vivo preventive test on Septoria tritici (leaf spot on wheat); details: wheat plants, evaluated 24 days after the inoculation
# Sphaerotheca fuliginea = experiment: In vivo preventive test on Sphaerotheca fuliginea (powdery mildew on cucurbits); details: gherkin plants, evaluated 15 days after the inoculation
# Puccinia recondita = experiment: In vivo preventive test on Puccinia recondita (brown rust on wheat); details: 500 ppm of active ingredient; wheat plants; evaluated 11 days after the inoculation
# Procedure: 4) Example: In Vivo Preventive Test on Puccinia recondita (Brown Rust on Wheat) [table] The active ingredients were made soluble and homogenized in a mixture of Dimethyl sulfoxide/Acetone//Tween® 80 and then diluted in water to the desired concentration. The young plants of wheat were treated by spraying the active ingredient prepared as described above. Control plants were treated only with an aqueous solution of Acetone/Dimethyl sulfoxide/Tween® 80. After 24 hours, the plants were contaminated by spraying the leaves with an aqueous suspension of Puccinia recondita spores.
# Uromyces appendiculatus = experiment: In vivo preventive test on Uromyces appendiculatus (bean rust); details: 500 ppm of active ingredient; bean plants; evaluated 11 days after the inoculation
smiles,measurement,setting,value
Nc1nsc2c(=O)n(CC3CCCCC3)c(I)nc12 [Example I-65],efficacy,Alternaria brassicae,at least 70%
same,efficacy,Phytophthora infestans; 500 ppm of active ingredient,at least 70%
Nc1nsc2c(=O)n(Cc3ccccc3Cl)cnc12 [Example I-09],efficacy,Phytophthora infestans; 500 ppm of active ingredient,at least 70%
same,efficacy,Septoria tritici; 500 ppm of active ingredient,at least 70%
O=C(CCl)Nc1nsc2c(=O)n(CC3CCCCC3)cnc12 [Example I-56],efficacy,Alternaria brassicae,at least 70%
same,efficacy,Phytophthora infestans; 100 ppm of active ingredient,at least 70%
same,efficacy,Septoria tritici; 500 ppm of active ingredient,at least 70%
same,efficacy,Sphaerotheca fuliginea; 500 ppm of active ingredient,at least 70%
O=C(Nc1nsc2c(=O)n(CC3CCCCC3)cnc12)C(F)(Cl)C(F)(F)F (centres unmarked) [Example I-67],efficacy,Phytophthora infestans; 500 ppm of active ingredient,at least 70%
same,efficacy,Septoria tritici; 500 ppm of active ingredient,at least 70%
same,efficacy,Sphaerotheca fuliginea; 100 ppm of active ingredient,at least 70%
COC(=O)CC(=O)Nc1nsc2c(=O)n(CC3CCCCC3)cnc12 [Example I-71],efficacy,Phytophthora infestans; 500 ppm of active ingredient,at least 70%
same,efficacy,Puccinia recondita,at least 70%
same,efficacy,Septoria tritici; 100 ppm of active ingredient,at least 70%
same,efficacy,Sphaerotheca fuliginea; 100 ppm of active ingredient,at least 70%
Nc1nsc2c1NCN(Cc1cc(F)ccc1F)C2=O [Example I-62],efficacy,Phytophthora infestans; 500 ppm of active ingredient,at least 70%
CC(c1ccccc1)n1cnc2c(NC(=O)C3CC3)nsc2c1=O (centres unmarked) [Example I-40],efficacy,Phytophthora infestans; 500 ppm of active ingredient,at least 70%
same,efficacy,Puccinia recondita,at least 70%
same,efficacy,Septoria tritici; 500 ppm of active ingredient,at least 70%
same,efficacy,Uromyces appendiculatus,at least 70%
"Nc1nsc2c(=O)n(Cc3ccc(F)cc3)cnc12 [Example I-14, 3-amino-6-[(4-fluorophenyl)methyl]isothiazolo[4,5-d]pyrimidin-7-one]",efficacy,Phytophthora infestans; 500 ppm of active ingredient,at least 70%
O=C(CC(F)(F)F)Nc1nsc2c(=O)n(CC3CCCCC3)cnc12 [Example I-73],efficacy,Phytophthora infestans; 500 ppm of active ingredient,at least 70%
same,efficacy,Septoria tritici; 100 ppm of active ingredient,at least 70%
same,efficacy,Sphaerotheca fuliginea; 100 ppm of active ingredient,at least 70%
COCC(=O)Nc1nsc2c(=O)n(CC3CCCCC3)cnc12 [Example I-69],efficacy,Phytophthora infestans; 500 ppm of active ingredient,at least 70%
same,efficacy,Puccinia recondita,at least 70%
same,efficacy,Sphaerotheca fuliginea; 100 ppm of active ingredient,at least 70%
same,efficacy,Uromyces appendiculatus,at least 70%
CC(=O)Nc1nsc2c(=O)n(Cc3ccc(F)cc3F)cnc12 [Example I-79],efficacy,Phytophthora infestans; 100 ppm of active ingredient,at least 70%
same,efficacy,Septoria tritici; 100 ppm of active ingredient,at least 70%
O=C(Nc1nsc2c(=O)n(CC3CCCCC3)cnc12)C(F)(F)C(F)(F)Cl [Example I-68],efficacy,Phytophthora infestans; 500 ppm of active ingredient,at least 70%
same,efficacy,Septoria tritici; 100 ppm of active ingredient,at least 70%
same,efficacy,Sphaerotheca fuliginea; 500 ppm of active ingredient,at least 70%
"Nc1nsc2c1NCN(CC1CCCCCC1)C2=O [Example I-59, 3-amino-6-(cycloheptylmethyl)-4,5-dihydroisothiazolo[4,5-d]pyrimidin-7-one]",efficacy,Phytophthora infestans; 100 ppm of active ingredient,at least 70%
CCCC(=O)Nc1nsc2c(=O)n(CC3CCCCC3)cnc12 [Example I-45],efficacy,Alternaria brassicae,at least 70%
same,efficacy,Phytophthora infestans; 100 ppm of active ingredient,at least 70%
same,efficacy,Septoria tritici; 100 ppm of active ingredient,at least 70%
same,efficacy,Sphaerotheca fuliginea; 500 ppm of active ingredient,at least 70%
Nc1nsc2c(=O)n(CC3CC3)cnc12 [Example I-03],efficacy,Phytophthora infestans; 500 ppm of active ingredient,at least 70%
Nc1nsc2c(=O)n(CC3CCCC3)c(I)nc12 [Example I-66],efficacy,Phytophthora infestans; 500 ppm of active ingredient,at least 70%
COC(=O)C(=O)Nc1nsc2c(=O)n(CC3CCCCC3)cnc12 [Example I-70],efficacy,Phytophthora infestans; 500 ppm of active ingredient,at least 70%
same,efficacy,Septoria tritici; 500 ppm of active ingredient,at least 70%
same,efficacy,Sphaerotheca fuliginea; 100 ppm of active ingredient,at least 70%
Cc1nn(CC2CCCCC2)c(=O)c2snc(NC(=O)C(F)(F)C(F)(F)F)c12 [Example I-86],efficacy,Phytophthora infestans; 500 ppm of active ingredient,at least 70%
CCC(=O)Nc1nsc2c(=O)n(Cc3ccc(F)cc3F)cnc12 [Example I-84],efficacy,Phytophthora infestans; 100 ppm of active ingredient,at least 70%
same,efficacy,Puccinia recondita,at least 70%
same,efficacy,Septoria tritici; 100 ppm of active ingredient,at least 70%
